Laboratory results taken from paper PMC5806898.
No constants are given. Whether binding was seen depends on the method and setting. Binding seen in cells or lysates may run through a third protein. Here binding means that the protein was enriched with, or labelled near, the bait; the list need not be complete. Where a sequence is shown, tags or fusion partners need not be part of it.

Sequences of proteins named here, by UniProt entry; tags and fusion partners are left off. Residues count along the entry.
UniProt P11717, residues 41-2491: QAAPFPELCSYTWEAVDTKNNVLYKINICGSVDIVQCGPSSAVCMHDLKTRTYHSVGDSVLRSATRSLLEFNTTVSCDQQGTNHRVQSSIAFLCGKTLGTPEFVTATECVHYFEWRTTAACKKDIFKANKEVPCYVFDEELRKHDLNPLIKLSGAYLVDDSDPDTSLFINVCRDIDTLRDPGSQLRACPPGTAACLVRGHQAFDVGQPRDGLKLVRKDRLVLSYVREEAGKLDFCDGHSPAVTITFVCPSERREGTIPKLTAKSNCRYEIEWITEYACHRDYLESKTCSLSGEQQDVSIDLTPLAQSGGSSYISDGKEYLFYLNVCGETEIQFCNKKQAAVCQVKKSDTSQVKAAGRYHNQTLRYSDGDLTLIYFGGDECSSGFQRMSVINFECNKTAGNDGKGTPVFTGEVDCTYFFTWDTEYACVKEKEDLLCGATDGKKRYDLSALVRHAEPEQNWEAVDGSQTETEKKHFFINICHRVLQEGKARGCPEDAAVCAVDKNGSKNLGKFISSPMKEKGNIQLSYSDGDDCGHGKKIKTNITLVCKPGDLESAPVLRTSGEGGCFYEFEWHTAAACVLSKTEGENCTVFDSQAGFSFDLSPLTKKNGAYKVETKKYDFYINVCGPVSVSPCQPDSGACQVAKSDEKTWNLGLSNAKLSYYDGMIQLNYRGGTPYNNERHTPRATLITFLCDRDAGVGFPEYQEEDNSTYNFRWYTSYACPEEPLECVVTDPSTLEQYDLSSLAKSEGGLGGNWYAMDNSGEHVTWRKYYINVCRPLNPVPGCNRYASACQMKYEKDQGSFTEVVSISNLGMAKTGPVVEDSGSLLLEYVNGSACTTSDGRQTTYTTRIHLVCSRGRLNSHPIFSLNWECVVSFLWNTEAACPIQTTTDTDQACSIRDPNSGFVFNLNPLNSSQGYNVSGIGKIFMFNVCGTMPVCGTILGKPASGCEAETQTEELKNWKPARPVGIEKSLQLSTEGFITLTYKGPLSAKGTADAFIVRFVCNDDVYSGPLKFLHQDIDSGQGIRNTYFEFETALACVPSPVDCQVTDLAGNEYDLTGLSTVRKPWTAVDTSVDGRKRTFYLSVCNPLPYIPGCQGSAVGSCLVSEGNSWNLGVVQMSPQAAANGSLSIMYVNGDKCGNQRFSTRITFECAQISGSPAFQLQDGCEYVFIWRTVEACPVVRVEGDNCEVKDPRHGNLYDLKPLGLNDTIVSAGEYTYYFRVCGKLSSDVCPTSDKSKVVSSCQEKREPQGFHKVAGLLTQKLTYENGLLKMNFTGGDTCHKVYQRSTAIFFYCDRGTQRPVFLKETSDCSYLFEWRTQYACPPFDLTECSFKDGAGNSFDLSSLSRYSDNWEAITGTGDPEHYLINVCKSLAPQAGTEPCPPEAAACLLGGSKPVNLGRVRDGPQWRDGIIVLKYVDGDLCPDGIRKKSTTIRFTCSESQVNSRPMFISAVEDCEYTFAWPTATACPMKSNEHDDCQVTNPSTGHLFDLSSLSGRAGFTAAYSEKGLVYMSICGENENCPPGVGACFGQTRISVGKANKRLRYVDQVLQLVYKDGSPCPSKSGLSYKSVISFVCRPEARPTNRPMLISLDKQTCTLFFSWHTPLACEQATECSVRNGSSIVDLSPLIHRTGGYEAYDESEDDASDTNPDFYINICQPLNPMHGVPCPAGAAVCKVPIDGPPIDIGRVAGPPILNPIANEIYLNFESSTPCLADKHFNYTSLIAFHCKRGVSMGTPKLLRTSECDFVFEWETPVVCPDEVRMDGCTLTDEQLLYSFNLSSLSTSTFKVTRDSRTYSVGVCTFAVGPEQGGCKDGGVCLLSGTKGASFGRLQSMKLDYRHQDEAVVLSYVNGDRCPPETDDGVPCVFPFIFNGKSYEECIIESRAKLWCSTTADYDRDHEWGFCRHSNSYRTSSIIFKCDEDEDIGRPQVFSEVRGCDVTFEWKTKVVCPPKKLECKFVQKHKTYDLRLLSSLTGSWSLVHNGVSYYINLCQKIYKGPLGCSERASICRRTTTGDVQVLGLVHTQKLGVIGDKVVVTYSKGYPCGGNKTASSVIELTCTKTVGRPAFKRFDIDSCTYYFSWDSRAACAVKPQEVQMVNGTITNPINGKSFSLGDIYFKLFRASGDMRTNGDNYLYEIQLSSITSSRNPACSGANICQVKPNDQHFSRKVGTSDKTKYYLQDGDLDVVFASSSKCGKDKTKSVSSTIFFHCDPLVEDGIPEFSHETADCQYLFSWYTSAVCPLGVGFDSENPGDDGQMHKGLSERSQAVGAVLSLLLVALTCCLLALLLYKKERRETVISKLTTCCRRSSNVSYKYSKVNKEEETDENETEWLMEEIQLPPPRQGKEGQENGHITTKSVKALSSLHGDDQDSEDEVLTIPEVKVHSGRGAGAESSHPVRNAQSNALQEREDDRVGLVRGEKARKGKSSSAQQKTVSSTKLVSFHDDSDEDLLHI

Target: T1, GST followed by the N-terminal 709 residues of SPG15 (UniProt Q68DK2)
T1 sequence: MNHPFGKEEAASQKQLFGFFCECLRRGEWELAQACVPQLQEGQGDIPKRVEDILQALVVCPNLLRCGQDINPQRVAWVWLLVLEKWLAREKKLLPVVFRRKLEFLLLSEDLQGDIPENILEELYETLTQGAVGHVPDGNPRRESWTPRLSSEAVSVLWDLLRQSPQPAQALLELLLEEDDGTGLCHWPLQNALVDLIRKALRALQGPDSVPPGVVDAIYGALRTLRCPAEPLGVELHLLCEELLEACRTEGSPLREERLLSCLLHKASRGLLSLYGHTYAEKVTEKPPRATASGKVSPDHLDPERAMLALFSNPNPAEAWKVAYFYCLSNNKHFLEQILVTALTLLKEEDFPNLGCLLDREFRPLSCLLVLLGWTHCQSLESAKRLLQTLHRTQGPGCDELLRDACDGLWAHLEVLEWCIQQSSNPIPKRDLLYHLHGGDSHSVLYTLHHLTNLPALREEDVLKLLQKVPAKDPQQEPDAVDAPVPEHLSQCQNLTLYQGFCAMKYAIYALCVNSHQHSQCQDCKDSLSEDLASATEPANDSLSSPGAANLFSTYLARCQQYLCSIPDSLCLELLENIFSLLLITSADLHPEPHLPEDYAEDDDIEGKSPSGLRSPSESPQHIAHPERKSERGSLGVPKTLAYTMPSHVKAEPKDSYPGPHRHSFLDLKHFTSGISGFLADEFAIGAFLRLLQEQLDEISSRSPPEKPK
Test: affinity purification with mass spectrometry; GST_SPG15N1–709 as bait in SH-SY5Y cell lysate (PBS with 0.5% Triton X-100, pH 7.4), recovered with glutathione Sepharose 4B; label-free quantification against GST-only pulldowns, in triplicate; only the target purified

## cation-independent mannose 6-phosphate receptor (from UniProt P11717 41-2491)
  binding: binds
